Assay results from article PMC3796306.
No constants are given. Whether binding was seen depends on the method and setting. In cells and extracts the contact can be indirect. Some binding calls cover weakened binding; strength is not graded here. Where a sequence is shown, tags or fusion partners need not be part of it.

Protein sequences, listed by entry. Tags and fused reporters are not part of them.
UniProt P26599: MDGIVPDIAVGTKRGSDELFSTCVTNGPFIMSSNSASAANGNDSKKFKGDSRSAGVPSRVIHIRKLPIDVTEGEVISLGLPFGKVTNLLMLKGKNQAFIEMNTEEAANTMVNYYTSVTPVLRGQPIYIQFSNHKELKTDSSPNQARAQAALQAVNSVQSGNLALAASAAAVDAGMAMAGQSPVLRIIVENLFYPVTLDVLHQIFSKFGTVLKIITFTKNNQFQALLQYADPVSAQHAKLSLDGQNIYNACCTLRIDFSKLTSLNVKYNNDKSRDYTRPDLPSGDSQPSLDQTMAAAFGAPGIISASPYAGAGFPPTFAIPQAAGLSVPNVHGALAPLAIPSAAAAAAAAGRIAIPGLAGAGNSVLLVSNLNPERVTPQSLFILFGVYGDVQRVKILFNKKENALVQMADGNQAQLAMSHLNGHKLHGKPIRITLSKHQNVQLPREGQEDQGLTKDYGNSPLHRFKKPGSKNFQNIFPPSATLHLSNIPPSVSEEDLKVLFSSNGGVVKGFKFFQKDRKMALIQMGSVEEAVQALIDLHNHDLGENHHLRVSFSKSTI

Target: T1, Histidine-tagged hnRNP L (human) (UniProt P14866)
T1 sequence: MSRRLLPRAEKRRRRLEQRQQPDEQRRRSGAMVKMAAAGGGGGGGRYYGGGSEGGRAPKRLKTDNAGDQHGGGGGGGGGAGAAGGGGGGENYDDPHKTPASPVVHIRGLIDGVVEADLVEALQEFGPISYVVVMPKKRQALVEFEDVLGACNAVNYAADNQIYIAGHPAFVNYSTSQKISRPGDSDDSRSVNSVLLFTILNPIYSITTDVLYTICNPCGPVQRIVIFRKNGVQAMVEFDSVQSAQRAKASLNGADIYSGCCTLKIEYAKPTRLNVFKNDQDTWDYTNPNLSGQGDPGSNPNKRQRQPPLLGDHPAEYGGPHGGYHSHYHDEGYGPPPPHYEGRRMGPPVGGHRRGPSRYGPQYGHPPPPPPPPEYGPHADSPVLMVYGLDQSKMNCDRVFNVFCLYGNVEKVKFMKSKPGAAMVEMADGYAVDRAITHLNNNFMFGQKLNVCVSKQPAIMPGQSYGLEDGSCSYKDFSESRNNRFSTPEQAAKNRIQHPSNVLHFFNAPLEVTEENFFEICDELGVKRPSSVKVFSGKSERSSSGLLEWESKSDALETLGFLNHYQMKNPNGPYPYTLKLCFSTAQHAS
Experiment: co-IP; 100 ug nuclear extract of transfected SH-SY5Y cells precipitated with 2 ug anti-His-tag antibody (Nuclear Complex Co-IP kit), in the presence of RNase A, NaCl up to 150 mM; protein G beads; blot for endogenous PTB

## polypyrimidine tract-binding protein (PTB) (from UniProt P26599 1-557)
  binding: binds
